## Screening data, single-dose tests

Sequences of proteins named here, by UniProt entry; tags and fusion partners are left off. Residues count along the entry.
UniProt I6X8D2, whole entry: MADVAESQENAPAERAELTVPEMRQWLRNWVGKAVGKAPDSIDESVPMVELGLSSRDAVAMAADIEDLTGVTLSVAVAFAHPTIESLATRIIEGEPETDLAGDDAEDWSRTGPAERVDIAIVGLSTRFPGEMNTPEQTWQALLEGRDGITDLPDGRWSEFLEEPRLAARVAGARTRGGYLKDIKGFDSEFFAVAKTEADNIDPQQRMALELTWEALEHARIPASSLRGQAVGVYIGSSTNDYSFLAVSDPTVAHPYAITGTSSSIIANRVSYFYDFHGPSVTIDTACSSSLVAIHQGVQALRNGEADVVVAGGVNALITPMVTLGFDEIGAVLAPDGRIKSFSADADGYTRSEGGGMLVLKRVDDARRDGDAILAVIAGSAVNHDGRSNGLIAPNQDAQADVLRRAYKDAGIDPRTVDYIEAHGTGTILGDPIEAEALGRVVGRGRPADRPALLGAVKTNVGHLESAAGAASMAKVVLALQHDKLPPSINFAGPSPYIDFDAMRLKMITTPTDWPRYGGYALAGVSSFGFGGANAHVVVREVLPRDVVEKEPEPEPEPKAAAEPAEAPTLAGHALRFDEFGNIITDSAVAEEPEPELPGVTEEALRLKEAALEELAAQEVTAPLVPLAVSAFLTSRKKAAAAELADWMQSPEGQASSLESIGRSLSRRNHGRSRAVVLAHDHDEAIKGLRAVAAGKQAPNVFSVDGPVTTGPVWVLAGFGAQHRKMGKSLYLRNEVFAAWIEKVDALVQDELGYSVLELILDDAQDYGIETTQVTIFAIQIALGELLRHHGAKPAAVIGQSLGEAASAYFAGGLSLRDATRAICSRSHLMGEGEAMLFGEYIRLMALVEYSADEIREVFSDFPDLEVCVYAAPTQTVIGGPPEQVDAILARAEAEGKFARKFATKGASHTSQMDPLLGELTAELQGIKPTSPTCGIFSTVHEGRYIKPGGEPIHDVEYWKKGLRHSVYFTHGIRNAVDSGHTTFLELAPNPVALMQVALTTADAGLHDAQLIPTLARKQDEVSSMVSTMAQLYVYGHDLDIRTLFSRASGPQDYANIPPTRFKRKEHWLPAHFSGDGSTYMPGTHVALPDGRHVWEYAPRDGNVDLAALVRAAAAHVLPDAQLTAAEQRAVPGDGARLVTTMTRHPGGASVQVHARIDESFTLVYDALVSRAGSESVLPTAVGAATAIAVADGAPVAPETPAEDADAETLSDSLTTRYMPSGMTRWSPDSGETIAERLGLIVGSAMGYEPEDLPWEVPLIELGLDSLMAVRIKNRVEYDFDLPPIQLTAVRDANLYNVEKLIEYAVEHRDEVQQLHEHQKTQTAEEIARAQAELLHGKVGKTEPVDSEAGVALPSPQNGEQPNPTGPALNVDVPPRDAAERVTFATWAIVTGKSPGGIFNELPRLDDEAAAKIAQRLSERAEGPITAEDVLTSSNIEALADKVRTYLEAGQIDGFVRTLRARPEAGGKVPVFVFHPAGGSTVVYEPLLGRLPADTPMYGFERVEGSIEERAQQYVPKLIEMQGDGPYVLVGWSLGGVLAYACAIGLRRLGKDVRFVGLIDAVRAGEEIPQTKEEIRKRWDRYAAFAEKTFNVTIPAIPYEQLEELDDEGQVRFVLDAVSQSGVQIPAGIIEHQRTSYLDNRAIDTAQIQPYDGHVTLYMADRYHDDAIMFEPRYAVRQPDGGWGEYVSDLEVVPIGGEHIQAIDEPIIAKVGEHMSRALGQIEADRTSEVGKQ
UniProt Q8IDJ8, 1-583: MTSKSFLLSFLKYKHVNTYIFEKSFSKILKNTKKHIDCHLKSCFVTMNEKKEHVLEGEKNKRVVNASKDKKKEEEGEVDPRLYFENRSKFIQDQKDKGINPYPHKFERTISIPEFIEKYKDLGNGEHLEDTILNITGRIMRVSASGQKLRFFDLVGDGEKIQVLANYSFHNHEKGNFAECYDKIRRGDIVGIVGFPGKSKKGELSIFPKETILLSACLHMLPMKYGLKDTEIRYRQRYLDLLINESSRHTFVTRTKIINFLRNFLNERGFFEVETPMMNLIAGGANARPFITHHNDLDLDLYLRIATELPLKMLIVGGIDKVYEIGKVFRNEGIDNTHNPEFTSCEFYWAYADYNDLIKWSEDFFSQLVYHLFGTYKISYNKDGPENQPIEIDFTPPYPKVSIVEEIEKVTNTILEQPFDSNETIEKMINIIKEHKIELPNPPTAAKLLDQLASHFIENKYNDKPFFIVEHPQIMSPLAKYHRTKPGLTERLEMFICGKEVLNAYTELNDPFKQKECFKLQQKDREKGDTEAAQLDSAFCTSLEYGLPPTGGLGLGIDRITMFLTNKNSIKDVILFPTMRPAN
UniProt A4I591, 1-473: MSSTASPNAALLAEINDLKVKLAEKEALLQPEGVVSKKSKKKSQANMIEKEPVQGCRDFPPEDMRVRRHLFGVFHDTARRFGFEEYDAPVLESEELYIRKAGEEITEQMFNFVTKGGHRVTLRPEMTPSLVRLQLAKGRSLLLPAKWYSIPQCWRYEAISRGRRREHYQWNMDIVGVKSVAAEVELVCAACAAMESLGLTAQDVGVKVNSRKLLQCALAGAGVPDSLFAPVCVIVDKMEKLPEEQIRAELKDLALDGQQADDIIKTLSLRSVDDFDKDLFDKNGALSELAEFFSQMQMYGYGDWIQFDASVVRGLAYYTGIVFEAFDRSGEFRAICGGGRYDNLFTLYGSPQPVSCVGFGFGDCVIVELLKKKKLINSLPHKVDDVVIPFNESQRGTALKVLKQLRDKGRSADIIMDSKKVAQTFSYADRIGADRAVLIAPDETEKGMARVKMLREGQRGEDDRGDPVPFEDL
UniProt P9WFT3, whole entry: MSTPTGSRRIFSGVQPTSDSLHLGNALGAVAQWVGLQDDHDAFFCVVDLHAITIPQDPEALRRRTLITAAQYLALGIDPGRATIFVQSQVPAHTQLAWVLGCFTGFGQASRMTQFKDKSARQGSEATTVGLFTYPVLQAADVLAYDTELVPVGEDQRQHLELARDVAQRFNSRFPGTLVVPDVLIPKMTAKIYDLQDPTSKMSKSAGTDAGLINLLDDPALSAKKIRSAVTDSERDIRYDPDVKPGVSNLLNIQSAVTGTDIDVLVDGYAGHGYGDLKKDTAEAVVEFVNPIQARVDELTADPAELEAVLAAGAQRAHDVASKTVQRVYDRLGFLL

From ChEMBL document CHEMBL3988442, “University of Dundee, Small-Polar-MMV Screening Library” (2021).

Pks13 thioesterase: 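Enzyme assay of the thioesterase domain of polyketide synthase 13; the read-out is not stated. Target: Polyketide synthase Pks13, Mycobacterium tuberculosis (UniProt I6X8D2). Concentration: 30 µM. The record gives no direction; the compounds picked for IC50 retests had high values, so higher reads as stronger inhibition. Of about 67,000 compounds tested this way, about 300 (0.46%) reached 50% or more in at least one test.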
PfKRS1: 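Lysine-tRNA ligase, Plasmodium falciparum 3D7 (UniProt Q8IDJ8). Enzyme assay of the cytosolic lysyl-tRNA synthetase in 384-well plates, read by luminescence. Compounds at 30 µM. Direction is inferred from only a few compounds that gave an IC50; most scored high, so higher reads as stronger inhibition. Size under these conditions: about 69,000 compounds, about 49 of them at 50% or above in at least one test.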
LiHisRS: 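Enzyme assay of histidyl-tRNA synthetase; the read-out is not stated. Target: Histidine-tRNA ligase, Leishmania infantum (UniProt A4I591). Tested at 30 µM. Direction is inferred from retests: higher values go with stronger inhibition. The assay is labelled LdHisRS but filed under L. infantum. Size under these conditions: about 69,000 compounds, about 410 of them at 50% or above in at least one test.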
MtTrpRS: 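Tryptophan-tRNA ligase, Mycobacterium tuberculosis (UniProt P9WFT3). Enzyme assay of tryptophanyl-tRNA synthetase; the read-out is not stated. Concentration: 10 µM. Direction is not recorded; retested compounds ran higher, which suggests that high means inhibition. About 65,000 compounds were tested under these conditions; 0.098% (about 64) showed 50% or more at least once.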

Values are the deposited “Percent Effect”, in %. How 0% and 100% were set is not recorded. Most values in the screen are low, and negative values occur. The compounds are a random part of those screened. A dash means the value is not listed here; it may have been measured.

| structure | Pks13 thioesterase | PfKRS1 | LiHisRS | MtTrpRS |
|---|---|---|---|---|
| `COCCN1CC(c2nc(CSC)no2)CCC1=O` (stereo not shown) | -8.373 | 0.7118 | 10.42 | -2.829 |
| `COC(=O)[C@@H]1CN(C(=O)Nc2ccccc2)CCN1C(C)=O` | -33.75 | 5.663 | 13.89 | -3.238 |
| `Cc1cc(C(=O)N2CCCC3(COCCN(c4ccccc4)C3)C2)[nH]n1` (stereo not shown) | -30.3 | 2.349 | 23.93 | 8.043 |
| `CCSc1ccc(NC(=O)NC2CCc3[nH]ncc3C2)cn1` (stereo not shown) | -4.619 | 2.186 | 8.333 | 2.397 |
| `CCc1c(C)nc(C)nc1N1C[C@@H](CN(C)CCN(C)C)[C@@H](CO)C1` | -30.32 | 5.383 | 10.42 | -5.093 |
| `CCc1cnc(NC(=O)NC2CCN(C)CC2)s1` | 3.555 | 0.3872 | 16.87 | -2.039 |
| `COc1ccc(CN2CCO[C@H]3[C@H](Oc4ccccn4)CC[C@@H]32)cc1` | -13.68 | 3.499 | 25.71 | 0.6509 |
| `Cc1nn(C)c(C)c1S(=O)(=O)N(CC(N)=O)CC(C)C` | -6.356 | 8.605 | 4 | 4.357 |
| `COc1ncccc1NC(=O)C1CC1` | 4.71 | 0.6889 | 8.929 | -1.298 |
| `O=C(NCc1cccnc1)Nc1ccn(CC(F)F)n1` | -30.27 | 2.142 | 9.859 | 6.761 |
| `CSc1ncc(CNC(C)c2cnn(-c3ccccc3)c2C)cn1` (stereo not shown) | -4.705 | 2.575 | 7.5 | 2.026 |
| `CN(CC(F)(F)F)C(=O)CNC(=O)Cc1ccccc1O` | -12.02 | 6.717 | 19.18 | -0.4776 |
| `Cc1ncccc1O[C@H]1CCN(C(=O)Cc2cccs2)CC[C@@H]1O` | 2.642 | 2.602 | 17.14 | -3.25 |
| `Cc1nc(Nc2nnc(C)s2)cc(C2CCCN2c2ccncn2)n1` (stereo not shown) | -10.89 | -0.6009 | 14 | - |
| `CNc1cc(N2CCCC2CNCc2ccc(Cl)o2)ncn1` (stereo not shown) | -31.35 | -0.4937 | 40.38 | 9.193 |
| `CCCN1CCC(NCc2ccncc2)CC1` | -9.792 | 9.303 | 21.21 | -2.422 |
| `CCc1ccc(-c2cn3c(C(=O)NCC(C)C(=O)NC)csc3n2)cc1` (stereo not shown) | -30.57 | 4.866 | 12.86 | -3.249 |
| `Cn1nc(C2CCCN(Cc3cc(F)cc(F)c3)C2)c2nccnc21` (stereo not shown) | 8.774 | 3.49 | 3.125 | - |
| `Cc1ccc(C(=O)Nc2ccc(N3CCCC3)cn2)cc1C` | -18.3 | 6.228 | 12.07 | -2.917 |
| `CCn1c(O)c(C(C)=O)c2cc(C)ccc21` | -12.75 | 2.332 | 14.94 | 5.628 |
| `CC(=O)c1cc(CN2C[C@H]3CC[C@@H]2CN(S(=O)(=O)N(C)C)C3)cs1` | -12.16 | 6.672 | 20.19 | 2.844 |
| `COc1cccc(CC(=O)N2CCC3(CC2)OCCCC3O)c1OC` (stereo not shown) | -3.867 | 0.6001 | 3.614 | 5.167 |
| `Cc1ccsc1[C@@H]1CCN(C(=O)c2cc3ccccc3[nH]2)C[C@H]1O` | -12.96 | 6.742 | 12.5 | -0.5687 |
| `Nc1cc(CCCNC(=O)NC2CC2)nn1-c1ccccc1` | -2.835 | -0.9853 | 15.38 | -5.916 |
| `Cc1nn(CC(=O)Nc2ccc(F)cc2)c(N)c1C#N` | 13.84 | 1.054 | 6.838 | -4.354 |
| `CCc1nc(N)nc(NCCC(=O)N2CCCC2)c1C` | -7.756 | 1.632 | 8.889 | 1.235 |
| `CS(=O)(=O)N1C[C@H]2CCCN(Cc3nccs3)[C@H]2C1` | 5.327 | -6.827 | 8.772 | 21.49 |
| `O=C(COCc1nc(-c2ccncc2)no1)N1CCCCCC1` | -20.21 | -1.335 | 19.81 | 5.717 |
| `CC(C)n1nnnc1-c1ccc(NC(=O)C(C)(C)C#N)cc1F` | -15.91 | 2.22 | 7.865 | 1.861 |
| `CC(C)Nc1ccc2nc(C3CCNCC3)nn2c1` | 18.13 | 4.492 | 15.38 | -1.521 |
| `COCC(c1cccc(C(F)(F)F)c1)N(C)C(=O)c1ccccn1` (stereo not shown) | -0.218 | -0.203 | 21.43 | -2.197 |
| `Cc1ccc(OCc2occc2C(=O)N2CC[C@H](CO)[C@@H](O)C2)cc1` | 10.17 | 9.567 | 8.85 | -0.2721 |
| `NCC1Cc2cc(-c3cnccn3)cc(Cl)c2O1` (stereo not shown) | -2.507 | -1.168 | 10.96 | -9.814 |
| `O=C(CN1CCCC1Cn1cncn1)NCCOc1ccccc1` (stereo not shown) | -5.558 | 3.626 | 15.18 | -7.41 |
| `CN(C)C1CCCN(Cc2cccc(Cn3cccn3)c2)CC1` (stereo not shown) | -10.64 | 7.293 | 16.8 | -1.087 |
| `c1coc(CN2CCc3nnc(COc4cncnc4)n3CC2)c1` | -17.14 | 3.23 | 29.09 | -0.6975 |
| `COCCC(=O)N1CCCC1c1cccc(C)c1C` (stereo not shown) | -13.93 | 6.769 | 9.677 | 4.959 |
| `O=C(c1cnns1)N1CCN(Cc2ccc(F)cc2Cl)CC1` | -0.335 | 4.766 | 15.15 | -5.818 |
| `CN1CCN(Cc2ccsc2)Cc2cccnc21` | -4.951 | 7.189 | 11.93 | 3.743 |
| `Cc1ccc(CNCc2ccc(-n3nc(C)cc3C)nc2)cc1` | -11.39 | 1.395 | 21.6 | -1.258 |
| `COCc1cc(CNCc2c(C)n(CC(N)=O)c3ccccc23)n[nH]1` | -9.561 | 1.934 | 12.9 | 1.083 |
| `COCCNC(=O)c1cc2c(nc1O)CC(c1cccs1)CC2=O` (stereo not shown) | 34.56 | 3.554 | 10 | 2.462 |
| `Cc1c(NCc2cccc(C#N)c2)cccc1S(=O)(=O)NC1CC1` | -16.89 | -2.223 | 12.9 | 1.837 |
| `CCOCC1c2c(cnn2CC2CC2)CCN1C(=O)c1ccncn1` (stereo not shown) | -1.127 | 4.289 | 8.547 | 14.83 |

Repeated from the top, 4 entries:

COCCN1CC(c2nc(CSC)no2)CCC1=O (stereo not shown) read Pks13 thioesterase: -8.373%; PfKRS1: 0.7118%; LiHisRS: 10.42%; MtTrpRS: -2.829%.
COC(=O)[C@@H]1CN(C(=O)Nc2ccccc2)CCN1C(C)=O read Pks13 thioesterase: -33.75%; PfKRS1: 5.663%; LiHisRS: 13.89%; MtTrpRS: -3.238%.
Cc1cc(C(=O)N2CCCC3(COCCN(c4ccccc4)C3)C2)[nH]n1 (stereo not shown) read Pks13 thioesterase: -30.3%; PfKRS1: 2.349%; LiHisRS: 23.93%; MtTrpRS: 8.043%.
CCSc1ccc(NC(=O)NC2CCc3[nH]ncc3C2)cn1 (stereo not shown) read Pks13 thioesterase: -4.619%; PfKRS1: 2.186%; LiHisRS: 8.333%; MtTrpRS: 2.397%.